“Also recorded” adds a separate entry of the source. At least one peptide structure holds a part that was inferred or is arguable (an end, a ring closure or a residue). No end group written: not given here.
Experiments:
[1] = tested on: isolated rat heart; assay: Isolated Langendorff perfused rat heart, ischemia-reperfusion (Example 1: 45 min global ischemia, 120 min reperfusion; PRE or IDR infusion); conditions: for TnI release relative to control infusion / myoglobin release relative to control: IDR; for developed pressures returned to: control ~75%
[2] = tested on: isolated rat heart; assay: Ex vivo isolated perfused rat heart model of cardiac ischemic injury (Example 3: 40 min global ischemia; pre-conditioning or reperfusion treatment)
[3] = tested on: sheep undergoing cardiac ischemia; assay: Experimental myocardial infarction in sheep (90 min ischaemia of 2nd diagonal of LAD coronary artery); format: in vivo
[4] = tested on: sheep; assay: Sheep model: reperfusion after a period of subcritical ischemia, stunning period; format: in vivo
[5] = tested on: rats; assay: Rat model: ischemia 40 min and 2-hour reperfusion, infarct size and hemodynamics; format: in vivo; conditions: administered during last 3 minutes of 40 min ischemia and throughout 2-hour reperfusion
[6] = pre-ischemia infusion 0.3 nmol/L, P<0.01
[7] = infusion during in vivo cardiac ischemia, stated as 'will result'

Q: Which “TnI release relative to control infusion” value ([1]; 0.3 nmol/L, P<0.01) does the source give for LHLAFLGGRS [BNPsp(17-26), LHLAFLGGRS] here?
A: Its value is ~20%.

Q: What about the “myoglobin release relative to control” value ([1]; 0.3 nmol/L, P<0.05) of the same sequence?
A: The value was ~60%.

Q: And the “TnI release relative to control infusion” value ([1]; 1 nmol/L, P<0.01)?
A: The value was ~20%.

Q: And the “myoglobin release relative to control” value ([1]; 1 nmol/L, P<0.05)?
A: Its value is ~60%.

Q: What about the “TnI release during the reperfusion phase” value ([1]; given pre- or post-ischemia) of the same sequence?
A: Its value is “significant reductions in troponin I release; also recorded: marked and significant reductions”.

Q: What about the “myoglobin release during the reperfusion phase” value ([1]; given pre- or post-ischemia) of the same sequence?
A: Its value is “concomitant improvements in reperfusion myoglobin levels; also recorded: marked and significant reductions”.

Q: And the “cardiac contractility (developed pressure)” value ([1]; infusion 30 min prior to (pre) or immediately after (IDR) ischemia, vs vehicle control)?
A: Its value is “improves the contractile function of the left ventricle; also recorded: improve cardiac contractility; also recorded: significant improvements in cardiac contractility”.

Q: What about the “developed pressures returned to” value ([1]; post-ischemia infusion 1 nmol/L, P<0.01) of the same sequence?
A: The value was 110-120 % pre-ischemia values.

Q: And the “vascular tone during the post-ischemic reperfusion phase” value ([1]; post-ischemia use of 0.3 and 1 nmol/L, P<0.05)?
A: Its value is “well preserved”.

Q: And the “vascular tone (perfusion pressure) during reperfusion” value ([1]; pre or IDR treatment, vs vehicle control)?
A: Its value is “beneficially reduced; also recorded: significant improvements”.

Q: And the “inotropic effect prior to ischemia” value ([1]; pre-infusion 0.3 nmol/L, trend)?
A: Its value is “positive inotropic effect”.

Q: What about the “vascular tone during the post-ischemic reperfusion phase” value [1, 6] of the same sequence?
A: The value was “well preserved”.

Q: What about the “developed pressures returned to” value [1, 6] of the same sequence?
A: Its value is 110-120 % pre-ischemia values.

Q: And the “contractility during the reperfusion stage” value ([2]; 0.3 nmol/L at reperfusion, P=0.003)?
A: The value was “+7 % versus control”.

Q: What about the “mean perfusion pressures during reperfusion” value ([2]; 0.3 nmol/L at reperfusion, compared with control, P<0.05) of the same sequence?
A: The value was −10%.

Q: What about the contractility during infusion ([2]; 0.3 nmol/L, pre-ischemia infusion, P=0.003) of the same sequence?
A: Its contractility during infusion is “+15.4 % versus control”.

Q: What about the “reduction in cumulative Troponin I release” value ([2]; 0.3 nmol/L, compared with control, P<0.05) of the same sequence?
A: The value was 50%.

Q: And the “contractility during the reperfusion stage” value ([2]; 1 nmol/L at reperfusion, P=0.003)?
A: The value was “+26 % versus control”.

Q: What about the “caspase-3 staining (brown colouration), left ventricular free wall cardiomyocytes” value ([2]; 1 nmol/L at reperfusion, compared with control) of the same sequence?
A: Its value is “virtually absent”.

Q: What about the “mean perfusion pressures during reperfusion” value ([2]; 1 nmol/L at reperfusion, compared with control, P<0.05) of the same sequence?
A: The value was −10%.

Q: And the “reduction in cumulative Troponin I release” value ([2]; 1 nmol/L, compared with control, P<0.01)?
A: Its value is 66%.

Q: And the cardiac contractile function ([2]; 0.3-1.0 nmol/L at reperfusion, compared with control)?
A: Its cardiac contractile function is “significantly improved”.

Q: And the TUNEL positive nuclei ([2]; all hearts infused with peptide)?
A: The TUNEL positive nuclei was “markedly reduced; also recorded: less brown coloured nuclei”.

Q: And the “release of troponin I from the ischemic myocardium” value ([2]; hearts receiving peptide vs control)?
A: Its value is “significantly reduced”.

Q: What about the “recovery of contractile function (developed pressure)” value ([2]; pre-conditioned or treated at reperfusion, vehicle about 70%) of the same sequence?
A: Its value is “over 100 % of their pre-ischemia contractile function”.

Q: And the “coronary vascular tone post-ischemia” value ([2]; preconditioned)?
A: Its value is “improvements in coronary vascular tone”.

Q: And the “caspase-3 staining (brown colouration), left ventricular free wall cardiomyocytes” value ([2]; preconditioned with 0.3 nmol/L, compared with control)?
A: The value was “markedly reduced”.

Q: What about the “developed pressure during the reperfusion phase after ischemia” value ([2]; preconditioned, 0.1-0.3 nmol/L, P=0.007) of the same sequence?
A: Its value is “+21 % versus control”.

Q: And the “reperfusion vascular pressures (perfusion pressure)” value ([2]; preconditioned, 0.1-0.3 nmol/L, compared with control, P=0.008)?
A: Its value is −25 to −50%.

Q: And the caspase-3 positive cells ([2]; treated hearts)?
A: The caspase-3 positive cells was “significant reduction in caspase-3 positive cells”.

Q: What about the “Hematoxylin and Eosin (HE) staining, cellular preservation” value ([2]; treated vs control hearts) of the same sequence?
A: Its value is “greater degree of myocyte cell swelling and myofibrillar derangement in control hearts; also recorded: improved integrity and less disruption”.

Q: And the “cumulative cardiac troponin I release post-ischemia” value ([3]; 500 ng/kg·min, 7 sheep vs control saline, P<0.01)?
A: The value was “significantly lower cumulative troponin I release; also recorded: improved; also recorded: significantly reduced”.

Q: And the cardiac contractile function ([3]; in vivo sheep experiments)?
A: The cardiac contractile function was “improved”.

Q: What about the “cardiac contractile function (expected)” value [3, 7] of the same sequence?
A: The value was “beneficial effects”.

Q: And the “release of biomarkers (troponin I, myoglobin) of necrosis (expected)” value [3, 7]?
A: The value was “significant reductions”.

Q: What about the “ventricular wall stress abnormalities that accompany remodelling after ischemia (expected)” value [3, 7] of the same sequence?
A: Its value is “significant reductions”.

Q: What about the “stunning period during reperfusion” value [4] of the same sequence?
A: Its value is “significantly reduced the stunning period”.

Q: What about the hemodynamics [5] of the same sequence?
A: The hemodynamics was “significantly improved hemodynamics”.

Q: And the infarct size [5]?
A: Its infarct size is −30%.
